Values quoted from earlier work, collected in patent US20220079915A1, “IMMUNOSUPPRESSIVE PHARMACEUTICAL COMPOSITION AND APPLICATION THEREOF” (Shanghai Archeus Biotech Co., Ltd., priority 2018, published 2022).
For at least one compound, name, drawing or mass did not settle the structure.

Assays:
cyclic guanylic acid = conditions: source [6]; read-out: increase of cyclic guanylic acid EC50; cited from earlier work
[1] = target: adenylate cyclase in rat cerebral cortex; conditions: source [8]; read-out: activation of adenylate cyclase in rat cerebral cortex EC50; cited from earlier work

Row | Structure (SMILES) | EC50 (cyclic guanylic acid) [µM] | EC50 [1] [µM]
1 | C=CC1(C)CC(=O)C2(O)C(C)(O1)C(OC(C)=O)C(OC(=O)CCN1CCCCC1)C1C(C)(C)CCC(O)C12C (stereo not drawn) [6-[(1-piperidino)propionyl]forskolin] | 3 | –
2 | C=CC1(C)CC(=O)C2(O)C(C)(O1)C(OC(=O)CC)C(O)C1C(C)(C)CCC(O)C12C (stereo not drawn) [7-(2-methyl)forskolin] | – | 15
3 | C=CC1(C)CC(=O)C2(O)C(C)(O1)C(OC(=O)OCC)C(O)C1C(C)(C)CCC(O)C12C (stereo not drawn) [7-(2-oxoethyl)forskolin] | – | 8
